Results: paper PMC11397430
Results are given in words; binding and its absence hold for the method and conditions named. Binding seen in cells or lysates may run through a third protein.

Amino acid sequences for entries named in this document (tags omitted). A change or cut given only in a name is not applied to a line headed by its entry.
UniProt Q96GC6: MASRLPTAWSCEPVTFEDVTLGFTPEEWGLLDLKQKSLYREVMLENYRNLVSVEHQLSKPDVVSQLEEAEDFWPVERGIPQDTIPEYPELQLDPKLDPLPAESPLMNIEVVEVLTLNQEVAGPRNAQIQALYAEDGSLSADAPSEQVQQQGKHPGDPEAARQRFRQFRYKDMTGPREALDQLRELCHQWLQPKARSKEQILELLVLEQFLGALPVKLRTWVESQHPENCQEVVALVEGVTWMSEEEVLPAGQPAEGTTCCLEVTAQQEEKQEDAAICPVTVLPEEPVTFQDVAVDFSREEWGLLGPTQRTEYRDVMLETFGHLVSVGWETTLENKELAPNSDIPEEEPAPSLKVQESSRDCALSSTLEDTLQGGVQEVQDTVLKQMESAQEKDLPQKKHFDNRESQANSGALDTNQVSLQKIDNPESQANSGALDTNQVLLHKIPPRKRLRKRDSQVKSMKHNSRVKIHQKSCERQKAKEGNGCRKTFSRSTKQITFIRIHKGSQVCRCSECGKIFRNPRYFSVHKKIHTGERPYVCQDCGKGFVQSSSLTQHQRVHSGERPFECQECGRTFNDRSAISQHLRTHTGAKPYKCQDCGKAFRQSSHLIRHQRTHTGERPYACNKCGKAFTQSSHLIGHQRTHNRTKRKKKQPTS
UniProt Q13263: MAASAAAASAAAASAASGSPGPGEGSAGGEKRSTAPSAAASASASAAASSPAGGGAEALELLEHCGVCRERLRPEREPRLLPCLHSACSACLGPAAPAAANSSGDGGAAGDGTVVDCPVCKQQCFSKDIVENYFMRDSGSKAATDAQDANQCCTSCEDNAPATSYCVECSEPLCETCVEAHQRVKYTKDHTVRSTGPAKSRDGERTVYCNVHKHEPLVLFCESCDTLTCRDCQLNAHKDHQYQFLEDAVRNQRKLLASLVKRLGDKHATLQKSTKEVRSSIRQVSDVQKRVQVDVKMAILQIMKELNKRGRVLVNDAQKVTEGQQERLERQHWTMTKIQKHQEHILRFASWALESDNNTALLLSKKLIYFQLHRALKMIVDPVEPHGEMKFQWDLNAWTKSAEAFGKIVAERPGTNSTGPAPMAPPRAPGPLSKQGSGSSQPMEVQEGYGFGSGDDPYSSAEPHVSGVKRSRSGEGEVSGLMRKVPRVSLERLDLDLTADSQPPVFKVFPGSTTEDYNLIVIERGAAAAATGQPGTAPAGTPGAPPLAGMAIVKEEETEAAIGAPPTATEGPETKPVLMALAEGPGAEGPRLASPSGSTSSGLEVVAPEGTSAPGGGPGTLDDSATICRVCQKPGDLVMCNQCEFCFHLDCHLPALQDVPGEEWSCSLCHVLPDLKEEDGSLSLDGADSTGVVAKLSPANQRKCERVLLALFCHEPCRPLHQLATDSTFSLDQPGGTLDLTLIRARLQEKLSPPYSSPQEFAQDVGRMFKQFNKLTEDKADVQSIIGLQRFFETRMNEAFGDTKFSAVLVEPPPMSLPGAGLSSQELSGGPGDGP

Target: ΔKRAB-ZNF274 (ZNF274 with the two KRAB domains deleted) (human) (UniProt Q96GC6)
Assay: co-IP; HEK293T cells cotransfected with HA- and Flag-tagged ZNF274 constructs, 24 h with doxycycline; lysis in IP buffer (0.5% NP-40, 500 mM Tris pH 7.4, 20 mM EDTA); anti-Flag Sepharose or anti-HA magnetic beads overnight at 4°C; immunoblot for HA, Flag and KAP1

KAP1/TRIM28 (from UniProt Q13263 1-835)
binding: no binding
